Measured values taken from the supplement of paper PMC10849652.
Some of the results follow.

Sequences of proteins named here, by UniProt entry; tags and fusion partners are left off. A change or cut given only in a name is not applied to a line headed by its entry.
UniProt Q9NX14, whole entry, looked up: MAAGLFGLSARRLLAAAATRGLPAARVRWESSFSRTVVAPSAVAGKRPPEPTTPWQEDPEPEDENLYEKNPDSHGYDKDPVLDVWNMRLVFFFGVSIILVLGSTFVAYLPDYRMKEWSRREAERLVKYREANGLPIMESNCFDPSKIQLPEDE
UniProt Q9GZT8: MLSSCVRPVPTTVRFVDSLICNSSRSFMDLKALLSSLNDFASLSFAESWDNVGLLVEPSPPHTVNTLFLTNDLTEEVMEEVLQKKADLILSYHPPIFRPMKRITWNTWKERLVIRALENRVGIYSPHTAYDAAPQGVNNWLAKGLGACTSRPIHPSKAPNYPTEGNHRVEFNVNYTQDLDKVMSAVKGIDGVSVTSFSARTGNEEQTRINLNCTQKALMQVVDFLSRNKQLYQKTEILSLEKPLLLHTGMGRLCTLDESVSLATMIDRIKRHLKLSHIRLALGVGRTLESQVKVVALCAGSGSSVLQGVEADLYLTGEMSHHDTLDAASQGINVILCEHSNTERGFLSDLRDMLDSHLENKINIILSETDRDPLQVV
UniProt Q8N5F7: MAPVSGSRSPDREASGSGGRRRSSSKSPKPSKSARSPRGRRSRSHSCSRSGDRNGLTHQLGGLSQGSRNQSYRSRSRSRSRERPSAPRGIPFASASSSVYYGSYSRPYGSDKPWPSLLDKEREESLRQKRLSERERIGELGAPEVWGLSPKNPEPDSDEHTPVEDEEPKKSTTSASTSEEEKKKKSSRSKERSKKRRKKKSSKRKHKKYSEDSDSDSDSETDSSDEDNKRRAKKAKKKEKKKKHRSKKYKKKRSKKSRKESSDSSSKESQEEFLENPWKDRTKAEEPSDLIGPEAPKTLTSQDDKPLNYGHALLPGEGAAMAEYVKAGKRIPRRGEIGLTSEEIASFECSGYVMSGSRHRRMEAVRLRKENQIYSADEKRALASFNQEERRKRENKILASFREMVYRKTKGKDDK
UniProt O43181, whole entry, looked up: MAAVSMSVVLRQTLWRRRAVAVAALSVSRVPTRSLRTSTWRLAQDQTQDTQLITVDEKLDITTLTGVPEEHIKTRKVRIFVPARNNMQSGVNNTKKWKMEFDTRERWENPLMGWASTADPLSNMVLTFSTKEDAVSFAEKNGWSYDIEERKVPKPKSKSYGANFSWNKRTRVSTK
UniProt Q92692, whole entry, looked up: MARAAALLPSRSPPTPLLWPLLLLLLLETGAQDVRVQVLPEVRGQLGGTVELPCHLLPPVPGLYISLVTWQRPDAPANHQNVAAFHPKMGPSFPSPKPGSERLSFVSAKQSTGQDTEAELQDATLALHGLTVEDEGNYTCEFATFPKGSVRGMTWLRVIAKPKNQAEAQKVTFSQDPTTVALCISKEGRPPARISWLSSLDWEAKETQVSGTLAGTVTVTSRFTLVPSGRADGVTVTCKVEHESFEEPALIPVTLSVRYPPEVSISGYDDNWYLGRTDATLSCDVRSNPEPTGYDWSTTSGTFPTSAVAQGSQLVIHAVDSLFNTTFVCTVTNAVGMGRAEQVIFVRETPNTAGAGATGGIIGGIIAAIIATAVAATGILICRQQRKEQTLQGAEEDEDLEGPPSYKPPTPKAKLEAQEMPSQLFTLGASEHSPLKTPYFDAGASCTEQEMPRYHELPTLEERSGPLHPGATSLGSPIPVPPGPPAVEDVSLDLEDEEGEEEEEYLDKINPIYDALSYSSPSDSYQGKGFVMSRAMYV
UniProt Q92597: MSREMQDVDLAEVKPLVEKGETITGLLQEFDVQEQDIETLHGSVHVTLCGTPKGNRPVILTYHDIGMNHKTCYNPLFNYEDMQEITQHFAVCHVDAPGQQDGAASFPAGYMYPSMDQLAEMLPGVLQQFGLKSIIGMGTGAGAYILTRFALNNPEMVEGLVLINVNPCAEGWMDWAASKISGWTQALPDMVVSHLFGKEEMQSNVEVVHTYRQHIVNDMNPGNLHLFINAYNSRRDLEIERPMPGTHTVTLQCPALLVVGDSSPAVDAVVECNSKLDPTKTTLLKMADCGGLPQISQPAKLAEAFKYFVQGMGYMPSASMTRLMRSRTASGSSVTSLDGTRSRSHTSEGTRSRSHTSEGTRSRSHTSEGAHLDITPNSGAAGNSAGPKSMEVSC
UniProt Q5TEU4: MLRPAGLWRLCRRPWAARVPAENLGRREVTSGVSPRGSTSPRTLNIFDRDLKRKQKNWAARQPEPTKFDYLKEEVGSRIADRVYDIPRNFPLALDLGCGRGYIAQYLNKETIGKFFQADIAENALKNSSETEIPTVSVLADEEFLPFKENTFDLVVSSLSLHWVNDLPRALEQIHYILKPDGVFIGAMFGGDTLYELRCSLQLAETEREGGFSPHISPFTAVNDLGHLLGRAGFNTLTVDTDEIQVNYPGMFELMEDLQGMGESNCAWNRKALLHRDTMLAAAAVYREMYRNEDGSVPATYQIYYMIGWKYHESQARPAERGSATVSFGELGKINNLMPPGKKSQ
UniProt Q9H9Q4: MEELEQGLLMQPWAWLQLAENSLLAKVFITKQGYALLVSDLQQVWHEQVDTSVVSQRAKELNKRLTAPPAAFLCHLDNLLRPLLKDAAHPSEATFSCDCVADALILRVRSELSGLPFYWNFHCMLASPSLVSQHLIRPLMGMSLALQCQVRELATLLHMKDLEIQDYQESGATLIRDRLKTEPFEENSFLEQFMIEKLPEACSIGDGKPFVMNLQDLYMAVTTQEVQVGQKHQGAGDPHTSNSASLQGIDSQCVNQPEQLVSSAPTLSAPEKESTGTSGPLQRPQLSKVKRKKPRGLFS
UniProt Q8NC96: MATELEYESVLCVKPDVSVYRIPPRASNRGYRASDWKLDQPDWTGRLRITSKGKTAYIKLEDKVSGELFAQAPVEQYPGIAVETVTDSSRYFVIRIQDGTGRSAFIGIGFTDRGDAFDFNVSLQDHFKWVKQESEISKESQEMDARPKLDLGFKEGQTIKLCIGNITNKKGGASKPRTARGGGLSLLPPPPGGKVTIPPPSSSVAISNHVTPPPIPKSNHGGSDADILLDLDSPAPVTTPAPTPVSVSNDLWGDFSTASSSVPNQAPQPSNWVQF
UniProt P18615, whole entry, looked up: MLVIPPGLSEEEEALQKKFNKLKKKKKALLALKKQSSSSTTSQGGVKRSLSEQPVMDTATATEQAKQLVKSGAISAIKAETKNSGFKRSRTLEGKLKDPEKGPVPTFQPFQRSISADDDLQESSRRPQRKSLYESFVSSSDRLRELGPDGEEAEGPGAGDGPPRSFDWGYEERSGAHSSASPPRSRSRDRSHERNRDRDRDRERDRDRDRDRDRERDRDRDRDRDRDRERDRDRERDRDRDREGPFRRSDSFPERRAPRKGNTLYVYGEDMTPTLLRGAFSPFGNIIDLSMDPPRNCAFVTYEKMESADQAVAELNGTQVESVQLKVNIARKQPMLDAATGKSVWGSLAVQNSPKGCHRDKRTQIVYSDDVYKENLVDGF
UniProt Q9UMS0: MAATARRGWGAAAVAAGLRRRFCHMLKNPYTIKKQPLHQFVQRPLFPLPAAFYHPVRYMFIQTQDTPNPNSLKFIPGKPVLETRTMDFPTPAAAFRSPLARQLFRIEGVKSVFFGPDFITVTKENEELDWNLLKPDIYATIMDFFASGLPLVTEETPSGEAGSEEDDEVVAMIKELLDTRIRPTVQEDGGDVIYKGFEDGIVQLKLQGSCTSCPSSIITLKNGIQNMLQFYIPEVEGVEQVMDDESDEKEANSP
UniProt Q12857, whole entry, looked up: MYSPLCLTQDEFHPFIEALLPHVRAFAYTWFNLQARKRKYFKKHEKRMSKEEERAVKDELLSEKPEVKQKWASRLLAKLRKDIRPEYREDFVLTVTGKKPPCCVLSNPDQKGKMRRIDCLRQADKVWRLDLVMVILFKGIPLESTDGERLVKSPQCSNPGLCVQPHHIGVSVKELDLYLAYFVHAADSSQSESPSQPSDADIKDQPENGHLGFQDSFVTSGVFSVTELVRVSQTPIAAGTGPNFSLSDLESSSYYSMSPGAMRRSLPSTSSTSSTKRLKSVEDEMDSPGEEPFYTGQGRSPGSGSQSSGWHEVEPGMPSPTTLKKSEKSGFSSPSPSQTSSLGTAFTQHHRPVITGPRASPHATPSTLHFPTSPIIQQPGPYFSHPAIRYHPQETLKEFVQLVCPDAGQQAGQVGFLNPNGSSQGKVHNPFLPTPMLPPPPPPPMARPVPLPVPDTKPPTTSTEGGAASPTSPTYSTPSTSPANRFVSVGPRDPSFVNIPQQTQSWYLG
UniProt Q9BS92: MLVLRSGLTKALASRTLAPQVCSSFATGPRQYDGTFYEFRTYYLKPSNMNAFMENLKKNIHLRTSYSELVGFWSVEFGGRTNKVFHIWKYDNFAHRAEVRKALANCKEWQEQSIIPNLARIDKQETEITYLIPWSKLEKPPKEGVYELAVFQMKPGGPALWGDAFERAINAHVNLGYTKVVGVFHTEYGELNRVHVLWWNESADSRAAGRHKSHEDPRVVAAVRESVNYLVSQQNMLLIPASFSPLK
UniProt Q9Y2I1: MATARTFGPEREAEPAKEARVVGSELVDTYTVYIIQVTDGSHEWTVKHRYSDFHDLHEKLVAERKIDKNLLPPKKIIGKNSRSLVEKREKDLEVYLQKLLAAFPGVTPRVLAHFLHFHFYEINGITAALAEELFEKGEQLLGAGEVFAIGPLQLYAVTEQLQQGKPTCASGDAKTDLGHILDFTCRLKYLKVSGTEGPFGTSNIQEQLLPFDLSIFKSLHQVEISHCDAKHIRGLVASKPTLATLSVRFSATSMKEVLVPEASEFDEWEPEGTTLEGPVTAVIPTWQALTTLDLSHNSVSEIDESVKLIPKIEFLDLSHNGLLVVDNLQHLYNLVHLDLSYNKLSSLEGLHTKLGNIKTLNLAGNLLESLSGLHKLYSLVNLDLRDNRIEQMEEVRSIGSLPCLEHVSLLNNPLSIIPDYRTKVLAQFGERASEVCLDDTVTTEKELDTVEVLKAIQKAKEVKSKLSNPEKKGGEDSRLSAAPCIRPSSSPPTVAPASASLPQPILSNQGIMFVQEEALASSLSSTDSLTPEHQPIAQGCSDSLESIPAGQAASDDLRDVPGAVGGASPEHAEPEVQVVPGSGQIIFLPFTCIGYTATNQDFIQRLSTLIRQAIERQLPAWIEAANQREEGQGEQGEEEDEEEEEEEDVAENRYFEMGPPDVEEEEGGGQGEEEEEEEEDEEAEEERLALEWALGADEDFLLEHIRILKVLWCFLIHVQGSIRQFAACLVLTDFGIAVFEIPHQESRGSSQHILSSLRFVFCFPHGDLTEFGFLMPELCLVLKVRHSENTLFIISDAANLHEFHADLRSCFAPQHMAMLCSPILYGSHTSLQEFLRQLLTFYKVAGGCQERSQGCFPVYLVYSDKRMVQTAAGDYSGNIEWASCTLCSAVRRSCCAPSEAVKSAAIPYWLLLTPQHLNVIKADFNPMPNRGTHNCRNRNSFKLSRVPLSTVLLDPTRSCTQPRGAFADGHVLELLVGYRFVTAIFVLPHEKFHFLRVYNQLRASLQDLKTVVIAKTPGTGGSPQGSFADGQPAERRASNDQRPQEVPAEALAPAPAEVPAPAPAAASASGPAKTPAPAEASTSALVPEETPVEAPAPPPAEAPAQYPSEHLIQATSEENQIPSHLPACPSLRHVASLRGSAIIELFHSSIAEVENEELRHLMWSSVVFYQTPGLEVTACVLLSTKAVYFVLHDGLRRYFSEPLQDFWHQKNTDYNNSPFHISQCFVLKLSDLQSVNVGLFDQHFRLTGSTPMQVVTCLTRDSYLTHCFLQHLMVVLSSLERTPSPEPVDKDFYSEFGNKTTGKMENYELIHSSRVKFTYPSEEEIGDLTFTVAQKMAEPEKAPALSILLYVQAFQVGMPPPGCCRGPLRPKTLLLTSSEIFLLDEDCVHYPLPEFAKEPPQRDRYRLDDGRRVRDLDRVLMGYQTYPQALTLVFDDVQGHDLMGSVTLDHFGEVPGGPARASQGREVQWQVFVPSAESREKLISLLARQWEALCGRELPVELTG

Legend:
Experiment in all cases: log2 fold change, soluble protein after heating vs DMSO (PISA); higher = thermal stabilisation; K562 lysate, 10 uM; active = over 0.2 and 3.5 SD of the protein, either way, in both replicates (recomputed)
erlotinib = compound: C#Cc1cccc(Nc2ncnc3cc(OCCOC)c(OCCOC)cc23)c1 [erlotinib]
How it was run: (§1)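 Soluble protein was defined as the supernatant remaining after 21,000xg for 90 min, following pooling of heated aliquots and adjustment to 0.5% NP-40 at 4°C. Before that, crude K562 extract at 1 mg/mL protein in PBS pH 7.4 with 1 mM MgCl2 was treated with 10 μM compound for 30 min and heated for 3 min across 48°C-58°C. Quantification used TMTpro 16plex LC-MS/MS with channel sums equalised, and values are log-two fold changes in thermal stability relative to solvent controls from duplicates.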

[1] = compound: C/C(=N\NC(=O)C1=CC(=CC=C1)S(=O)(=O)N2CCOCC2)/C3=C(C=CC(=C3)Cl)O
How it was run: as §1

[2] = compound: C1=CC(=CC=C1C2=NC3=C(N2)C=C(C=C3)C(=O)N)OC4=CC=C(C=C4)Cl
How it was run: as §1

[3] = compound: C1=CC2=C(C=CC(=C2)/C=C\3/C(=O)NC(=NCC4=CC=CS4)S3)N=C1
How it was run: as §1

[4] = compound: C1=CC2=NC=CN=C2C=C1/C=C/3\C(=O)NC(=O)S3
How it was run: as §1

[5] = compound: C1=CC=C(C=C1)C2=NC(=C(N2)C3=CC=NC=C3)C4=CC(=C(C=C4)Cl)O
How it was run: as §1

[6] = compound: C1=CC=C2C(=C1)C3=NNC4=CC=CC(=C43)C2=O
How it was run: as §1

[7] = compound: C1CCN(C1)C(=O)NC2=CC=CC(=C2)NC3=NC=C(C(=N3)NCCC4=CN=CN4)Br
How it was run: as §1

[8] = compound: C1CN(CCC1(CC2=CC=C(C=C2)Cl)N)C3=NC=NC4=C3C=CN4
How it was run: as §1

IRAK-1-4 Inhibitor I = compound: C1COCCN1CCN2C3=CC=CC=C3N=C2NC(=O)C4=CC(=CC=C4)[N+](=O)[O-] [IRAK-1-4 Inhibitor I]
How it was run: as §1

ibrutinib = compound: C=CC(=O)N1CCC[C@@H](n2nc(-c3ccc(Oc4ccccc4)cc3)c3c(N)ncnc32)C1 [ibrutinib]
How it was run: as §1

[9] = compound: CC(=O)c1cnc2ccc(-c3cc(Cl)c(O)c(Cl)c3)nc2c1N[C@H]1CC[C@H](CN(C)C)CC1
How it was run: as §1

ralimetinib = compound: CC(C)(C)Cn1c(N)nc2ccc(-c3[nH]c(C(C)(C)C)nc3-c3ccc(F)cc3)nc21 [ralimetinib]
How it was run: as §1

[10] = compound: CC(C)(O)CC(=O)NCCn1ccc2ncnc(Nc3ccc(Oc4cccc(C(F)(F)F)c4)c(Cl)c3)c21
How it was run: as §1

[11] = compound: CC(C)C1=C2N=C(C=C(N2N=C1)NCC3=CC=CC=C3)NCCCCCCN
How it was run: as §1

[12] = compound: CC1=C(C(CC(=O)N1)C2=CC=C(C=C2)C(F)(F)F)C(=O)NC3=C(C=C4C(=C3)C=NN4)F
How it was run: as §1

[13] = compound: CC1=C(C2=C(C=C1)C(=O)C3=CC=CC=C3N2CCCN)C
How it was run: as §1

[14] = compound: CC1=C(C=C(C=C1)NC(=O)C2=CC(=CC=C2)C(C)(C)C#N)NC3=CC4=C(C=C3)N=CN(C4=O)C
How it was run: as §1

[15] = compound: CC1=C(C=C(C=C1)NC(=O)C2=CC(=CC=C2)N(C)C)NC(=O)C3=CC=C(C=C3)O
How it was run: as §1

[16] = compound: CC1=CC=C(C=C1)SC2=C3C=C(SC3=CN=C2)C(=O)N
How it was run: as §1

Measured: log2 fold change

NDUFB11 isoform 2 (UniProt Q9NX14)
inactive: erlotinib 0.037 | [1] -0.006 | [2] -0.067 | [3] 0.006 | [4] -0.033 | [5] -0.029 | [6] -0.029 | [7] 0.008 | [8] 0.012 | IRAK-1-4 Inhibitor I 0.044 | ibrutinib 0.034 | [9] -0.021 | ralimetinib -0.005 | [10] -0.04 | [11] 0.02 | [12] -0.034 | [13] 0.02 | [14] 0.058 | [15] -0.011 | [16] -0.01

NIF3L1 (UniProt Q9GZT8)
inactive: erlotinib -0.018 | [1] -0.07 | [2] 0.009 | [3] 0.008 | [4] 0.028 | [5] 0.016 | [6] -0.001 | [7] 0.007 | [8] 0.017 | IRAK-1-4 Inhibitor I 0.033 | ibrutinib 0.024 | [9] -0.009 | ralimetinib -0.002 | [10] -0.015 | [11] -0.016 | [12] 0.032 | [13] -0.018 | [14] 0.018 | [15] -0.002 | [16] -0.003

NKAP (UniProt Q8N5F7)
inactive: erlotinib 0.13 | [1] -0.217 | [2] 0.018 | [3] 0.016 | [4] -0.11 | [5] -0.009 | [6] -0.106 | [7] 0.163 | [8] 0.058 | IRAK-1-4 Inhibitor I 0.012 | ibrutinib 0.064 | [9] -0.2 | ralimetinib 0.035 | [10] -0.028 | [11] 0.017 | [12] 0.074 | [13] 0.02 | [14] 0.054 | [15] -0.011 | [16] 0.086

NDUFS4 (UniProt O43181)
inactive: erlotinib 0.032 | [1] -0.094 | [2] 0.057 | [3] -0.021 | [4] -0.02 | [5] 0.004 | [6] -0.031 | [7] -0.02 | [8] 0.015 | IRAK-1-4 Inhibitor I -0.047 | ibrutinib 0.047 | [9] 0.011 | ralimetinib -0.017 | [10] -0.065 | [11] -0.008 | [12] -0.005 | [13] -0.039 | [14] 0.001 | [15] 0.028 | [16] -0.005

NECTIN2 isoform 2 (UniProt Q92692)
inactive: erlotinib -0.114 | [1] -0.06 | [2] -0.017 | [3] 0.152 | [5] 0.049 | [6] -0.062 | [7] -0.059 | [8] 0.049 | IRAK-1-4 Inhibitor I 0.111 | [9] 0.008 | ralimetinib -0.126 | [10] -0.081 | [11] -0.241 | [12] 0.123 | [13] -0.031 | [14] 0.03 | [15] 0.047 | [16] -0.079

NDRG1 (UniProt Q92597)
inactive: erlotinib -0.042 | [1] -0.127 | [2] -0.014 | [3] -0.004 | [4] 0.396 | [5] -0.022 | [6] 0.095 | IRAK-1-4 Inhibitor I 0.111 | ibrutinib 0.048 | [9] 0.028 | ralimetinib -0.015 | [10] -0.039 | [11] 0.049 | [13] 0.016 | [14] -0.014 | [15] 0.094 | [16] -0.08

NEU1 (UniProt Q99519)
inactive: erlotinib -0.035 | [1] -0.102 | [2] 0.052 | [3] -0.042 | [4] 0.008 | [5] 0.086 | [6] -0.074 | [7] -0.039 | [8] 0.023 | IRAK-1-4 Inhibitor I -0.008 | ibrutinib -0.022 | [9] -0.038 | ralimetinib 0.01 | [10] -0.001 | [11] -0.033 | [12] -0.096 | [13] 0.008 | [14] -0.024 | [15] 0.063 | [16] 0.141

4 neighbouring records already listed, for reference:
NDUFS4 (UniProt O43181)
inactive: erlotinib 0.032 | [1] -0.094 | [2] 0.057 | [3] -0.021 | [4] -0.02 | [5] 0.004 | [6] -0.031 | [7] -0.02 | [8] 0.015 | IRAK-1-4 Inhibitor I -0.047 | ibrutinib 0.047 | [9] 0.011 | ralimetinib -0.017 | [10] -0.065 | [11] -0.008 | [12] -0.005 | [13] -0.039 | [14] 0.001 | [15] 0.028 | [16] -0.005

NECTIN2 isoform 2 (UniProt Q92692)
inactive: erlotinib -0.114 | [1] -0.06 | [2] -0.017 | [3] 0.152 | [5] 0.049 | [6] -0.062 | [7] -0.059 | [8] 0.049 | IRAK-1-4 Inhibitor I 0.111 | [9] 0.008 | ralimetinib -0.126 | [10] -0.081 | [11] -0.241 | [12] 0.123 | [13] -0.031 | [14] 0.03 | [15] 0.047 | [16] -0.079

NDRG1 (UniProt Q92597)
inactive: erlotinib -0.042 | [1] -0.127 | [2] -0.014 | [3] -0.004 | [4] 0.396 | [5] -0.022 | [6] 0.095 | IRAK-1-4 Inhibitor I 0.111 | ibrutinib 0.048 | [9] 0.028 | ralimetinib -0.015 | [10] -0.039 | [11] 0.049 | [13] 0.016 | [14] -0.014 | [15] 0.094 | [16] -0.08

NEU1 (UniProt Q99519)
inactive: erlotinib -0.035 | [1] -0.102 | [2] 0.052 | [3] -0.042 | [4] 0.008 | [5] 0.086 | [6] -0.074 | [7] -0.039 | [8] 0.023 | IRAK-1-4 Inhibitor I -0.008 | ibrutinib -0.022 | [9] -0.038 | ralimetinib 0.01 | [10] -0.001 | [11] -0.033 | [12] -0.096 | [13] 0.008 | [14] -0.024 | [15] 0.063 | [16] 0.141

(further entries)

NDUFAF5 (UniProt Q5TEU4)
inactive: erlotinib -0.001 | [1] 0.027 | [2] 0.016 | [3] 0.021 | [4] -0.022 | [5] 0.009 | [6] 0.11 | [7] 0.193 | [8] -0.056 | IRAK-1-4 Inhibitor I 0.07 | ibrutinib -0.007 | [9] 0.021 | ralimetinib -0.011 | [10] -0.008 | [11] -0.029 | [13] 0.043 | [14] 0.076 | [15] -0.026 | [16] -0.048

NHEJ1 (UniProt Q9H9Q4)
inactive: erlotinib -0.025 | [1] -0.063 | [2] 0.077 | [3] -0.073 | [4] -0.06 | [5] -0.025 | [6] 0.042 | [7] 0.011 | [8] 0.039 | IRAK-1-4 Inhibitor I 0 | ibrutinib 0.053 | [9] 0.041 | ralimetinib 0.029 | [10] -0.061 | [11] -0.037 | [12] -0.035 | [13] -0.015 | [14] 0.026 | [15] 0.006 | [16] -0.038

NECAP1 (UniProt Q8NC96)
inactive: erlotinib -0.043 | [1] -0.008 | [2] 0.031 | [3] 0.005 | [4] -0.029 | [5] 0.014 | [6] 0.002 | [7] -0.019 | [8] 0.011 | IRAK-1-4 Inhibitor I 0.052 | ibrutinib 0.021 | [9] 0.017 | ralimetinib 0.015 | [10] -0.037 | [11] -0.023 | [12] 0.042 | [13] -0.004 | [14] 0.056 | [15] -0.008 | [16] 0.012

NELFE (UniProt P18615)
inactive: erlotinib -0.009 | [1] -0.043 | [2] -0.002 | [3] -0.013 | [4] -0.01 | [5] 0.037 | [6] -0.021 | [7] -0.003 | [8] 0.008 | IRAK-1-4 Inhibitor I 0.012 | ibrutinib -0.013 | [9] -0.018 | ralimetinib 0.013 | [10] -0.026 | [11] 0 | [12] -0.009 | [13] -0.012 | [14] 0.037 | [15] -0.014 | [16] -0.004

NFU1 (UniProt Q9UMS0)
inactive: erlotinib -0.01 | [1] 0.027 | [2] 0.03 | [3] -0.02 | [4] -0.046 | [5] 0.003 | [6] 0.004 | [7] 0.041 | [8] 0.014 | IRAK-1-4 Inhibitor I -0.002 | ibrutinib 0.143 | [9] 0.003 | ralimetinib -0.085 | [10] -0.033 | [11] 0.007 | [12] -0.021 | [13] 0.014 | [14] -0.004 | [15] -0.065 | [16] 0.016

NFIA isoform 4 (UniProt Q12857)
inactive: erlotinib 0.023 | [1] 0.05 | [2] -0.005 | [3] 0.079 | [4] -0.018 | [5] -0.138 | [6] -0.044 | IRAK-1-4 Inhibitor I 0.105 | ibrutinib 0.089 | [9] -0.015 | ralimetinib 0.032 | [10] -0.085 | [11] 0.082 | [12] 0.016 | [13] -0.191 | [14] -0.052 | [15] 0.023 | [16] -0.07

NIPSNAP3B (UniProt Q9BS92)
inactive: erlotinib -0.062 | [1] 0.078 | [2] 0.037 | [3] 0.051 | [4] 0.018 | [5] 0.016 | [6] -0.05 | [7] -0.011 | [8] -0.149 | IRAK-1-4 Inhibitor I 0.041 | ibrutinib 0.066 | [9] 0.047 | ralimetinib 0.011 | [10] -0.091 | [11] -0.007 | [12] 0.004 | [14] 0.079 | [15] 0.023 | [16] 0.038

NISCH (UniProt Q9Y2I1)
inactive: erlotinib 0.024 | [1] 0.006 | [2] 0.002 | [3] -0.006 | [4] -0.045 | [5] -0.019 | [6] -0.011 | [7] -0.002 | [8] -0.034 | IRAK-1-4 Inhibitor I 0 | ibrutinib 0.009 | [9] -0.035 | ralimetinib 0.037 | [10] -0.014 | [11] -0.024 | [12] -0.013 | [13] -0.003 | [14] 0.003 | [15] 0.01 | [16] 0.005
